Assay results published in article PMC4794909, “The transcription factor scleraxis is a critical regulator of cardiac fibroblast phenotype”.
These are yes or no findings as the source states them, for the method shown. In cells and extracts the contact can be indirect. Some results given as binding are weak or reduced against the parent protein; the word gives no strength. Sequences can lack the tags named with a protein.

Protein sequences, listed by entry. Tags and fused reporters are not part of them.
UniProt P84022: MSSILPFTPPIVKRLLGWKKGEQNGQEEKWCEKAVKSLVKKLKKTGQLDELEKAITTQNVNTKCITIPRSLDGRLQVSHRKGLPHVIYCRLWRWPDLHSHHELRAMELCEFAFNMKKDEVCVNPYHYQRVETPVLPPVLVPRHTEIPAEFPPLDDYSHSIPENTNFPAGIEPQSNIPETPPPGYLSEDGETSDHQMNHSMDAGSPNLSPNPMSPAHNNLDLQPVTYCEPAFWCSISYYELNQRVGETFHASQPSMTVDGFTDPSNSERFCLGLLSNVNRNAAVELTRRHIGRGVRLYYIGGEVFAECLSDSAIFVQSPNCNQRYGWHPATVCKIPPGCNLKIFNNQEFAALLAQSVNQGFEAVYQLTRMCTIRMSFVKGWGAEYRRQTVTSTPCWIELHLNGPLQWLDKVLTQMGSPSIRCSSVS

Biological target: T1, HA-tagged scleraxis (pECE-HA-Scx) (UniProt Q64124)
T1 sequence: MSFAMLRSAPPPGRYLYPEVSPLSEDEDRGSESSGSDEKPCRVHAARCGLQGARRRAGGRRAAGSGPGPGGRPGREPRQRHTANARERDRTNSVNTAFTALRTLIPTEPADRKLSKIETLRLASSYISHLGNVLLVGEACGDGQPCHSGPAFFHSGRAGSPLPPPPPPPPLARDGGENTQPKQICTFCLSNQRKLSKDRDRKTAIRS
Experiment: co-IP; NIH-3T3 cells transfected 48 h with HA-Scx (or HA-ScxΔHLH) and Myc-Smad3; lysis in 50 mmol/L Tris pH 7.5, 150 mmol/L NaCl, 0.5 % Triton X-100; 500 μg protein immunoprecipitated with anti-HA antibody or rabbit IgG; western blot with anti-c-myc

binding: binds
Substance: myc-tagged Smad3 (pCMV tag3C-Myc-Smad3) (from UniProt P84022 1-425)
